The supplement of paper PMC10849652
This is one part of the list.

Sequences of proteins named here, by UniProt entry; tags and fusion partners are left off. A change or cut given only in a name is not applied to a line headed by its entry.
UniProt Q9Y4P8: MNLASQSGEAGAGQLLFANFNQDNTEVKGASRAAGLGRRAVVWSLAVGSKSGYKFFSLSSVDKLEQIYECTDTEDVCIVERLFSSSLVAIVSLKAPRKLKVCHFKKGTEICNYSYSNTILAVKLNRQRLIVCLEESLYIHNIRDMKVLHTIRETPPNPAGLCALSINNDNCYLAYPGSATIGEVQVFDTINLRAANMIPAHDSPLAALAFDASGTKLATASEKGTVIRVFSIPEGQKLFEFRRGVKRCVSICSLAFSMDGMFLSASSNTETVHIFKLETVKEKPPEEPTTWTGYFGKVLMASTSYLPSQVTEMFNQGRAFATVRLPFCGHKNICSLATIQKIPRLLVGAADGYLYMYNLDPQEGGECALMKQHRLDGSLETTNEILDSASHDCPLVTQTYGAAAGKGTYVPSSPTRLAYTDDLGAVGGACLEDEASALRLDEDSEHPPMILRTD
UniProt Q96AJ9: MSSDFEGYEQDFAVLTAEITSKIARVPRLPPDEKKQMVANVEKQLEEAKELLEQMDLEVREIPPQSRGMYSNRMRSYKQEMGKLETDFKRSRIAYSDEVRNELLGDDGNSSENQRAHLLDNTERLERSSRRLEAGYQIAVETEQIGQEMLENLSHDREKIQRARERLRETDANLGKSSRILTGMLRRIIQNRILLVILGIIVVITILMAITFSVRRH
UniProt Q9HAD4: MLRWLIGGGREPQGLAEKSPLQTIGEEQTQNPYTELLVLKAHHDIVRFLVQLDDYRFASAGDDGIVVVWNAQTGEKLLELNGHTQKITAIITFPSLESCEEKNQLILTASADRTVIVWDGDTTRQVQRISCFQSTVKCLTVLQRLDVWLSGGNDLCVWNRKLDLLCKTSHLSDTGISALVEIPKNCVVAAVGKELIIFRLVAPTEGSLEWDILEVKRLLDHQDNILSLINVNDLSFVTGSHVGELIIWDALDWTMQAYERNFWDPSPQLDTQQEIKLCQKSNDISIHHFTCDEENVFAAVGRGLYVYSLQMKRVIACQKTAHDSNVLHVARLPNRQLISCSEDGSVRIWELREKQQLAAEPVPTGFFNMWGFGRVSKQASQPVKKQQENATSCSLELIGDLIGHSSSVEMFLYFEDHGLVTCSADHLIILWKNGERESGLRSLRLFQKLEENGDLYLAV
UniProt Q96J92: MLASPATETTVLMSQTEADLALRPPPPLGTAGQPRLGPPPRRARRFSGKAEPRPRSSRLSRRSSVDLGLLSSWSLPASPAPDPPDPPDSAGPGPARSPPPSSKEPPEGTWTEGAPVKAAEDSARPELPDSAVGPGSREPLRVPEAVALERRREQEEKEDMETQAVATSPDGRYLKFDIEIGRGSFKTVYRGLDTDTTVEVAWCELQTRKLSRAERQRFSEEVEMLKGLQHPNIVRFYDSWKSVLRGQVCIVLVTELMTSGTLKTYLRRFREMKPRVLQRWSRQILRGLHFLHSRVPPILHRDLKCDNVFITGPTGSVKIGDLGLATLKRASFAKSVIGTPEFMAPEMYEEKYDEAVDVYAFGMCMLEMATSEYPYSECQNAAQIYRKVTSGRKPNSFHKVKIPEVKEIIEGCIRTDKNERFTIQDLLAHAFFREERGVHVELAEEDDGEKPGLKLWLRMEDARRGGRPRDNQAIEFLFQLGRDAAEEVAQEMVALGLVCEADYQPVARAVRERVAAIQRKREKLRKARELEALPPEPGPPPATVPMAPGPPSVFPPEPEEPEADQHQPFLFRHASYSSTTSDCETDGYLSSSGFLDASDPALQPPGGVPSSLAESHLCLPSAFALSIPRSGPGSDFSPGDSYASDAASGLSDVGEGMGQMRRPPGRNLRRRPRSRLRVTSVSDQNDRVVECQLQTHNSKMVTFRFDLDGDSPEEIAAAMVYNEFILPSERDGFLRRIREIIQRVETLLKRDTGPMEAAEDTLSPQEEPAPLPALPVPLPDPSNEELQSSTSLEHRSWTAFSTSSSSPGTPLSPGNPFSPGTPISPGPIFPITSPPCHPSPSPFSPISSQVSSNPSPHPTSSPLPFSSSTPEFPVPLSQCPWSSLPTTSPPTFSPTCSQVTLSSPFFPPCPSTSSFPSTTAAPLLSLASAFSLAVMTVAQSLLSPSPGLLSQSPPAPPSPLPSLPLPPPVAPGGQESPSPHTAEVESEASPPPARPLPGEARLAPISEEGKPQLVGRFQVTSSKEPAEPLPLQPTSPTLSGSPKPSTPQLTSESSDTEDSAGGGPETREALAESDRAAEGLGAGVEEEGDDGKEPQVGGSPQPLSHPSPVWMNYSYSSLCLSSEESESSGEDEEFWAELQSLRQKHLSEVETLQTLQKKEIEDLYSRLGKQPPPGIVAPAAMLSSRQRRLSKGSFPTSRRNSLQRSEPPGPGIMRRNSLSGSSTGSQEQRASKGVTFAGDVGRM
UniProt A4D1P6: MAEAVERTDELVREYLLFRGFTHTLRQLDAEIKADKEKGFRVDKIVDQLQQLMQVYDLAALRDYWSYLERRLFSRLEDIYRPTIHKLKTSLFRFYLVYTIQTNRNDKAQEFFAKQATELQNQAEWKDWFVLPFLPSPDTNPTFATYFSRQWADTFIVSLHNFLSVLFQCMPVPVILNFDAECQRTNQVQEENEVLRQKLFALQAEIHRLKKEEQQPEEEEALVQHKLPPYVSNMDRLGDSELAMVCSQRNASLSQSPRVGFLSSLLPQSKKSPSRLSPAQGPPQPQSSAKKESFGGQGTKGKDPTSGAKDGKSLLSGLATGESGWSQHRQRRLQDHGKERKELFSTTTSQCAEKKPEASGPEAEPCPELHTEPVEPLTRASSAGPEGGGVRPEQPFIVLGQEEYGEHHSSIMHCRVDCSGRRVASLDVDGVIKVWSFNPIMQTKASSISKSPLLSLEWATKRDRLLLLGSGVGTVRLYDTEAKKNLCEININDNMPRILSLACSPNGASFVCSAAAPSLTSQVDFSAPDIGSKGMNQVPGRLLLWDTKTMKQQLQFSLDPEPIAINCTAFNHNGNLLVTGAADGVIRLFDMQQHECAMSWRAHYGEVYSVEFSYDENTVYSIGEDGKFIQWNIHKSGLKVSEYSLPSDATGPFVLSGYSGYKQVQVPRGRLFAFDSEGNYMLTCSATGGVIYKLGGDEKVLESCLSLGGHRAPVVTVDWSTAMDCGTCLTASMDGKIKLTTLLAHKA
UniProt Q8N9V3: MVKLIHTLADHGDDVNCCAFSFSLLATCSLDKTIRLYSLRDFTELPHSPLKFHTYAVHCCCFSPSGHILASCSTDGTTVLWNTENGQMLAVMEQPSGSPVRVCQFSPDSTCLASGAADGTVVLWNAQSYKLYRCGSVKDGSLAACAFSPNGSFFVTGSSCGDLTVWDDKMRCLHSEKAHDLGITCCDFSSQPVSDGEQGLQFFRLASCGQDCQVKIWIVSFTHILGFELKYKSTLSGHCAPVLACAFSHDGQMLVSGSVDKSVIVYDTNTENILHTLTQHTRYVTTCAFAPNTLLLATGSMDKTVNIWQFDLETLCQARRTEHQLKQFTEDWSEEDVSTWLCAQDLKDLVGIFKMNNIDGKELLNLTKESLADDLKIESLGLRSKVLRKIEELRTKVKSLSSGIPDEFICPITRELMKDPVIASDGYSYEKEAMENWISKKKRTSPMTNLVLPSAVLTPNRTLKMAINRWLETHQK
UniProt Q9H270: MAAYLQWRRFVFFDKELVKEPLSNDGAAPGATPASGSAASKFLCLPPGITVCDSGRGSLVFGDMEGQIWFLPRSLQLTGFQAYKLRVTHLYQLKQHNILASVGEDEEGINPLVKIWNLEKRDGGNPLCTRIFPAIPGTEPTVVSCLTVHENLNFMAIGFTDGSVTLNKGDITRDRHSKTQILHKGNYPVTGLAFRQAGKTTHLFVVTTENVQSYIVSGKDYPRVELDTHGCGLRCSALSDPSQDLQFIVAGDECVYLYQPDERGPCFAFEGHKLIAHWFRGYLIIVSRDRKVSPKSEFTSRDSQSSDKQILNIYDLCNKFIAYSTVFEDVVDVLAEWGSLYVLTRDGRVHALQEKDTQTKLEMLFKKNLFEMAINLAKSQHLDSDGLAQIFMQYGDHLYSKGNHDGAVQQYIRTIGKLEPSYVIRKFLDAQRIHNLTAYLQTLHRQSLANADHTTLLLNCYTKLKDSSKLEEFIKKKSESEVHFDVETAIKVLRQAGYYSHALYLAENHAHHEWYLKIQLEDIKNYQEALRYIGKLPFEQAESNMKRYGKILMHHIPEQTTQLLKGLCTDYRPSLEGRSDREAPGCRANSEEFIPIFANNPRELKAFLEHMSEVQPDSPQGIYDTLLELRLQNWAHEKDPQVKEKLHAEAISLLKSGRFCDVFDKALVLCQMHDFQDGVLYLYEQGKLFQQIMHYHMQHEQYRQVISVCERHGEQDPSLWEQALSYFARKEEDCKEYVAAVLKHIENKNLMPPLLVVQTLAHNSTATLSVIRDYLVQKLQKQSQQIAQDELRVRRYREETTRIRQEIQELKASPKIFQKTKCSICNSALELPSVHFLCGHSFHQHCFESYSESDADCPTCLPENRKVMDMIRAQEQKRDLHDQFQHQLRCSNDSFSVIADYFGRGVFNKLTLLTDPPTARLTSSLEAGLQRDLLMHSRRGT
UniProt P98170, whole entry, looked up: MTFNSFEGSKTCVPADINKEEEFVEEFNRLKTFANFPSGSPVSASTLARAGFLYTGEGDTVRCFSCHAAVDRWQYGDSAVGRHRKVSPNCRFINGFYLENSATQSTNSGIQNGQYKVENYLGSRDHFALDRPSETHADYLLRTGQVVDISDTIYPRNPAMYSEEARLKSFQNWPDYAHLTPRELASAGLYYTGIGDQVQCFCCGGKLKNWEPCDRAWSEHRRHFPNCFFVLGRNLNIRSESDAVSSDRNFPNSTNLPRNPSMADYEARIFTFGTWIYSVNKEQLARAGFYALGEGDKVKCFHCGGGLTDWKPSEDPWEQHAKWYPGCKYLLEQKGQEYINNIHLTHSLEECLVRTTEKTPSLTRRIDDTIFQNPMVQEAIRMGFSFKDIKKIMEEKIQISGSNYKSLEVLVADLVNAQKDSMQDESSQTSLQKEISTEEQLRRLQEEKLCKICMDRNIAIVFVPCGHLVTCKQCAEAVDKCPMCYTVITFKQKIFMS
UniProt Q96MX6, whole entry, looked up: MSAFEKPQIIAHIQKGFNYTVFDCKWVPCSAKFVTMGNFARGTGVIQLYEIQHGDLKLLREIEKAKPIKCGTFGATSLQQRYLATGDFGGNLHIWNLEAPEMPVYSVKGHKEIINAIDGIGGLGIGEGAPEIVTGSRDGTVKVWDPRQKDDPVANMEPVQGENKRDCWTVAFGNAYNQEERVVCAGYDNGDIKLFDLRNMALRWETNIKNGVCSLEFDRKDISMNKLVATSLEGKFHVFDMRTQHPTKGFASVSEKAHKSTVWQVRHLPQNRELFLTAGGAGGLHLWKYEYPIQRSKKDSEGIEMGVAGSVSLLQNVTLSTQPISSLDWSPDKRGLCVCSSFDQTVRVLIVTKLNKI
UniProt Q8NEZ2: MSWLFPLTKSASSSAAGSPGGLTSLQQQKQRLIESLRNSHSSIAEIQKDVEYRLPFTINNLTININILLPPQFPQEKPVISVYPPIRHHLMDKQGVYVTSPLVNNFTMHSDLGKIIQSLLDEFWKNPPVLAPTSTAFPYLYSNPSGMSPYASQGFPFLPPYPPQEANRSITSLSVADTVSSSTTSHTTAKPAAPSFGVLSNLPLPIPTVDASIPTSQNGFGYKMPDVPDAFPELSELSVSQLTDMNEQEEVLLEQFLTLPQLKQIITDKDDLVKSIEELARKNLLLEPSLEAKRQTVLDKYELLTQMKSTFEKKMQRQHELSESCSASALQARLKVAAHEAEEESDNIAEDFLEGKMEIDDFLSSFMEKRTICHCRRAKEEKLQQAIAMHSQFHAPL
UniProt Q96S15: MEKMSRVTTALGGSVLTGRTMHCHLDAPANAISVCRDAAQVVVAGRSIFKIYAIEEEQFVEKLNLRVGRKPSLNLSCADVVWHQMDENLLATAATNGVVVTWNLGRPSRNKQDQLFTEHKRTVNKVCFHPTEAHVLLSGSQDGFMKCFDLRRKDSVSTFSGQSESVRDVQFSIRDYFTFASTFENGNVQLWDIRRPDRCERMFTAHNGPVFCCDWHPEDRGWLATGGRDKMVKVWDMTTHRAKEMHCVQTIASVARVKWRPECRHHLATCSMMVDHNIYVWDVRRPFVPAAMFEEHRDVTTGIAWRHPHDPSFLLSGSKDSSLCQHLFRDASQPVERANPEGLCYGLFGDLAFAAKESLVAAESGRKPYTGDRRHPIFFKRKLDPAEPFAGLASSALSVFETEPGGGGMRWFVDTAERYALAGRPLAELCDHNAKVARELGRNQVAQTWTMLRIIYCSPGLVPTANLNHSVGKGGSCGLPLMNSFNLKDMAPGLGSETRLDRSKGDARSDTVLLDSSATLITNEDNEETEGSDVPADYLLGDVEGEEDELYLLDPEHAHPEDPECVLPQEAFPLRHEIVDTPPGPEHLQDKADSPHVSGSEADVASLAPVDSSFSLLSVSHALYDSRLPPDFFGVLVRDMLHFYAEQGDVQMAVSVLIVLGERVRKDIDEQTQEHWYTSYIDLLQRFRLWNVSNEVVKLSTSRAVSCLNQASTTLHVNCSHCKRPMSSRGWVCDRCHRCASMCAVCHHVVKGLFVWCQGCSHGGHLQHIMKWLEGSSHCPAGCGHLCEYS

Assays:
Experiment in all cases: log2 fold change, soluble protein after heating vs DMSO (PISA); higher = thermal stabilisation; K562 lysate, 10 uM; active = over 0.2 and 3.5 SD of the protein, either way, in both replicates (recomputed)
[1] = compound: NCC(=O)Nc1ccc(-n2nc(C(F)(F)F)cc2-c2ccc3c(ccc4ccccc43)c2)cc1
Procedure, shortened: (§1)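 K562 pellets were dounce-homogenised in PBS pH 7.4 containing 1 mM MgCl2, and the crude extract, at 1 mg/mL protein, was exposed to 10 μM compound for 30 min. Aliquots were heated for 3 min across 48°C-58°C, pooled, brought to 0.5% NP-40 at 4°C and spun at 21,000xg for 90 min, with the supernatant taken as soluble protein. TMTpro 16plex LC-MS/MS with equalised channel sums quantified that protein. Values are log-two fold changes in thermal stability relative to solvent controls, taken from duplicates.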

vorinostat = compound: O=C(CCCCCCC(=O)Nc1ccccc1)NO [vorinostat]
Procedure, shortened: as §1

silmitasertib = compound: O=C(O)c1ccc2c(c1)nc(Nc1cccc(Cl)c1)c1ccncc12 [silmitasertib]
Procedure, shortened: as §1

[2] = compound: O=C1NC(=O)C(c2cnc3ccccn23)=C1c1cn2c3c(cc(F)cc13)CN(C(=O)N1CCCCC1)CC2
Procedure, shortened: as §1

entospletinib = compound: c1cn2cc(-c3ccc4cn[nH]c4c3)nc(Nc3ccc(N4CCOCC4)cc3)c2n1 [entospletinib]
Procedure, shortened: as §1

Measured: log2 fold change

VMA21 (UniProt Q3ZAQ7)
inactive: [1] 0.041 | vorinostat 0.096 | silmitasertib 0 | [2] 0.042 | entospletinib -0.034

WIPI2 (UniProt Q9Y4P8)
inactive: [1] -0.036 | silmitasertib 0.033 | [2] -0.005 | entospletinib -0.008
active: vorinostat -0.303

VTI1A (UniProt Q96AJ9)
inactive: [1] -0.064 | vorinostat 0.141 | silmitasertib -0.012 | [2] -0.044 | entospletinib -0.026

WIPF2 (UniProt Q8TF74)
inactive: [1] -0.007 | vorinostat 0.098 | silmitasertib -0.027 | [2] 0.014 | entospletinib -0.027

WDR41 (UniProt Q9HAD4)
active: vorinostat -0.284
inactive: [1] -0.017 | silmitasertib 0.022 | [2] -0.08 | entospletinib 0.01

WNK4 (UniProt Q96J92)
inactive: [1] 0.004 | vorinostat -0.161 | silmitasertib 0.099 | [2] -0.019 | entospletinib -0.041

WDR18 (UniProt Q9BV38)
inactive: [1] 0.021 | vorinostat -0.036 | silmitasertib 0.013 | [2] -0.011 | entospletinib -0.008

VPS50 (UniProt Q96JG6)
inactive: [1] -0.009 | vorinostat -0.145 | silmitasertib 0.024 | [2] 0.029 | entospletinib 0.03

WAC (UniProt Q9BTA9)
active: vorinostat -0.309
inactive: [1] 0.011 | silmitasertib -0.031 | [2] -0.014 | entospletinib -0.046

WDR73 (UniProt Q6P4I2)
inactive: [1] -0.083 | vorinostat -0.052 | silmitasertib 0.03 | [2] -0.036 | entospletinib -0.058

VWA5A (UniProt O00534)
inactive: [1] 0.023 | vorinostat -0.061 | silmitasertib -0.044 | [2] -0.03 | entospletinib -0.014

WDR75 (UniProt Q8IWA0)
inactive: [1] -0.014 | vorinostat -0.086 | silmitasertib 0.06 | [2] 0.059 | entospletinib -0.091

WASHC4 (UniProt Q2M389)
inactive: [1] 0.001 | vorinostat 0.068 | silmitasertib 0.025 | [2] -0.002 | entospletinib 0.005

WRAP73 (UniProt Q9P2S5)
inactive: [1] 0.006 | vorinostat 0.019 | silmitasertib 0.072 | [2] 0.012 | entospletinib 0.049

WDR5 (UniProt P61964)
inactive: [1] -0.016 | vorinostat 0.029 | silmitasertib 0.011 | [2] 0.092 | entospletinib 0.077

WDTC1 (UniProt Q8N5D0)
inactive: [1] -0.005 | vorinostat 0.033 | silmitasertib -0.111 | [2] 0.029 | entospletinib 0.019

Looked up one by one from the list above, four records:
WDR5 (UniProt P61964)
inactive: [1] -0.016 | vorinostat 0.029 | silmitasertib 0.011 | [2] 0.092 | entospletinib 0.077

WASHC4 (UniProt Q2M389)
inactive: [1] 0.001 | vorinostat 0.068 | silmitasertib 0.025 | [2] -0.002 | entospletinib 0.005

WDTC1 (UniProt Q8N5D0)
inactive: [1] -0.005 | vorinostat 0.033 | silmitasertib -0.111 | [2] 0.029 | entospletinib 0.019

WDR75 (UniProt Q8IWA0)
inactive: [1] -0.014 | vorinostat -0.086 | silmitasertib 0.06 | [2] 0.059 | entospletinib -0.091

The list continues.

VRK3 (UniProt Q8IV63)
inactive: [1] 0.047 | vorinostat -0.075 | silmitasertib 0.002 | [2] -0.027 | entospletinib -0.077

WASL (UniProt O00401)
inactive: [1] -0.052 | vorinostat -0.186 | silmitasertib -0.079 | [2] 0.063 | entospletinib -0.056

WDR74 (UniProt Q6RFH5)
inactive: [1] -0.002 | vorinostat -0.085 | silmitasertib 0.001 | [2] -0.028 | entospletinib -0.002

VPS53 isoform 4 (UniProt Q5VIR6)
inactive: [1] -0.014 | vorinostat -0.156 | silmitasertib 0.021 | [2] -0.021 | entospletinib -0.013

WDCP (UniProt Q9H6R7)
active: vorinostat -0.233
inactive: [1] -0.066 | silmitasertib 0.022 | [2] 0.02 | entospletinib -0.036

WDR91 (UniProt A4D1P6)
active: vorinostat -0.227
inactive: [1] -0.045 | silmitasertib 0.042 | [2] -0.004 | entospletinib -0.029

WRB (UniProt O00258)
inactive: [1] 0.082 | vorinostat 0.131 | silmitasertib -0.055 | [2] -0.012 | entospletinib 0.146

WDYHV1 (UniProt Q96HA8)
inactive: [1] 0.181 | vorinostat 0.226 | silmitasertib -0.032 | [2] -0.077 | entospletinib 0.107

WDR4 (UniProt P57081)
inactive: [1] -0.033 | vorinostat -0.136 | silmitasertib 0.005 | [2] -0.019 | entospletinib -0.011

WDR82 (UniProt Q6UXN9)
inactive: [1] -0.009 | vorinostat -0.121 | silmitasertib 0.006 | [2] -0.018 | entospletinib -0.004

WDR77 (UniProt Q9BQA1)
inactive: [1] -0.052 | vorinostat -0.067 | silmitasertib 0.041 | [2] -0.01 | entospletinib 0.006

WDSUB1 (UniProt Q8N9V3)
inactive: [1] 0.001 | vorinostat 0.032 | silmitasertib 0.008 | [2] -0.019 | entospletinib -0.002

WDR59 (UniProt Q6PJI9)
inactive: [1] -0.098 | vorinostat -0.258 | silmitasertib -0.02 | [2] 0.019 | entospletinib 0.006

WDR44 (UniProt Q5JSH3)
inactive: [1] 0.006 | vorinostat 0.104 | silmitasertib -0.035 | [2] -0.021 | entospletinib 0.003

VPS11 (UniProt Q9H270)
active: vorinostat -0.509
inactive: [1] 0.023 | silmitasertib -0.009 | [2] 0.011 | entospletinib -0.006

VPS54 (UniProt Q9P1Q0)
inactive: [1] 0.112 | vorinostat -0.055 | silmitasertib -0.001 | [2] 0.002 | entospletinib 0.007

WDHD1 (UniProt O75717)
inactive: [1] -0.011 | silmitasertib 0.02 | [2] -0.018 | entospletinib 0.016
active: vorinostat -0.259

VPS36 (UniProt Q86VN1)
inactive: [1] 0.007 | vorinostat -0.04 | silmitasertib 0.026 | [2] -0.04 | entospletinib 0.004

VPS13B (UniProt Q7Z7G8)
inactive: [1] -0.081 | vorinostat -0.087 | silmitasertib 0.024 | [2] 0.08 | entospletinib -0.018

WDR7 (UniProt Q9Y4E6)
inactive: [1] -0.01 | silmitasertib 0.032 | [2] 0.01 | entospletinib -0.017
active: vorinostat -0.236

XIAP (UniProt P98170)
inactive: [1] -0.025 | vorinostat 0.073 | silmitasertib 0.019 | [2] 0.019 | entospletinib -0.051

WDR12 (UniProt Q9GZL7)
inactive: [1] 0.005 | vorinostat 0.06 | silmitasertib -0.014 | [2] -0.042 | entospletinib 0.016

WDR47 (UniProt O94967)
inactive: [1] -0.002 | vorinostat 0.04 | silmitasertib -0.021 | [2] -0.041 | entospletinib -0.036

WAPL isoform 3 (UniProt Q7Z5K2)
inactive: [1] 0.001 | vorinostat -0.163 | silmitasertib -0.028 | [2] -0.038 | entospletinib -0.013

WDR92 (UniProt Q96MX6)
inactive: [1] -0.046 | vorinostat -0.065 | silmitasertib 0.053 | [2] -0.036 | entospletinib 0.004

XPC (UniProt Q01831)
inactive: [1] 0.023 | vorinostat 0.07 | silmitasertib -0.014 | [2] 0.087 | entospletinib -0.028

WDR37 isoform 2 (UniProt Q9Y2I8)
inactive: [1] -0.048 | vorinostat -0.211 | silmitasertib -0.008 | [2] -0.027 | entospletinib -0.054

VPS37A (UniProt Q8NEZ2)
inactive: [1] -0.004 | vorinostat -0.189 | silmitasertib 0.041 | [2] -0.036 | entospletinib -0.056

WBP4 (UniProt O75554)
inactive: [1] 0.013 | vorinostat 0.151 | silmitasertib -0.002 | [2] -0.035 | entospletinib 0.041

VPS13D (UniProt Q5THJ4)
inactive: [1] -0.113 | vorinostat -0.228 | silmitasertib -0.02 | [2] -0.027 | entospletinib -0.102

XPNPEP1 isoform 3 (UniProt Q9NQW7)
inactive: [1] 0.006 | vorinostat -0.068 | silmitasertib -0.001 | [2] -0.019 | entospletinib 0.002

WDR24 (UniProt Q96S15)
inactive: [1] 0.041 | vorinostat -0.202 | silmitasertib 0.134 | [2] 0.032 | entospletinib 0.022

WDR70 (UniProt Q9NW82)
inactive: [1] 0.027 | vorinostat -0.014 | silmitasertib 0.054 | [2] -0.029 | entospletinib 0.015

VTN (UniProt P04004)
inactive: [1] 0.126 | vorinostat -0.07 | silmitasertib -0.076 | [2] -0.085 | entospletinib -0.146

WIPF3 (UniProt A6NGB9)
inactive: [1] -0.018 | vorinostat 0.068 | silmitasertib -0.045 | [2] 0.016 | entospletinib 0.016

WDR81 (UniProt Q562E7)
inactive: [1] 0.11 | vorinostat -0.09 | silmitasertib -0.024 | [2] -0.078 | entospletinib -0.032

WRAP53 (UniProt Q9BUR4)
inactive: [1] 0.001 | vorinostat 0.018 | silmitasertib 0.029 | [2] 0.023 | entospletinib -0.005
